Measured values reported in publication PMC11586402.
Where a chain is given by its changes, count along the chain named. Results are given in words; binding and its absence hold for the method and conditions named. Binding seen in cells or lysates may run through a third protein. Some binding calls cover weakened binding; strength is not graded here. For part of these data: Sequences can lack the tags named with a protein.

Key:
[1] = molecular target: T1, Zfp260 (in the 293 T cell line) (mouse) (UniProt Q62513); assay: co-IP; whole cell lysate of the 293 T cell line, antibody overnight, magnetic bead capture, Western blot
T1 sequence: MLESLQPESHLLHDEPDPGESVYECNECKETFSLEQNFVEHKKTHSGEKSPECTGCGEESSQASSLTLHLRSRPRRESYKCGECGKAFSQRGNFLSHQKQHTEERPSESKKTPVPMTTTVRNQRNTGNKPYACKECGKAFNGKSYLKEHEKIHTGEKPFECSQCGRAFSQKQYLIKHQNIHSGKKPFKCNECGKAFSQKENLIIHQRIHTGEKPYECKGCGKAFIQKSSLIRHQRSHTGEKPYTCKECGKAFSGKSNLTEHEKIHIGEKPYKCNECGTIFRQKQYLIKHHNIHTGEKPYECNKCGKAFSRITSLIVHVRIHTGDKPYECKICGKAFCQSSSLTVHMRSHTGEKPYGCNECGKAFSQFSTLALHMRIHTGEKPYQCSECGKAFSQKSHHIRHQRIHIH

[2] = molecular target: T2, Zfp260-V5 Y173F-S182G-S197G (mouse) (UniProt Q62513); assay: co-IP; whole cell lysates of immortalized PSCs (IP lysis buffer), pre-cleared with Protein A/G magnetic beads, antibody overnight, magnetic bead capture, Western blot; Fig. 3m with osteogenic induction; Fig. 6l in Zfp260-/- PSCs overexpressing Zfp260-V5 or its mutants
T2 sequence: T1 sequence with Y173F, S182G, S197G

[3] = molecular target: T3, Zfp260-V5 Y173F-S197G (mouse) (UniProt Q62513); assay: as above
T3 sequence: T1 sequence with Y173F, S197G

[4] = molecular target: T4, Zfp260-V5 (wild type) (mouse) (UniProt Q62513); assay: as above
T4 sequence: T1 sequence

Zfp260-V5 S197G (mouse) = molecular target: T5, Zfp260-V5 S197G (mouse) (UniProt Q62513); assay: as above
T5 sequence: T1 sequence with S197G

[5] = molecular target: T6, Zfp260-V5 S182G-S197G (mouse) (UniProt Q62513); assay: as above
T6 sequence: T1 sequence with S182G, S197G

Zfp260-V5 Y173F (mouse) = molecular target: T7, Zfp260-V5 Y173F (mouse) (UniProt Q62513); assay: as above
T7 sequence: T1 sequence with Y173F

Zfp260-V5 S182G (mouse) = molecular target: T8, Zfp260-V5 S182G (mouse) (UniProt Q62513); assay: as above
T8 sequence: T1 sequence with S182G

[6] = molecular target: T9, Zfp260-V5 Y173F-S182G (mouse) (UniProt Q62513); assay: as above
T9 sequence: T1 sequence with Y173F, S182G

Measured: binding

Prkca (in the 293 T cell line) (from UniProt P20444 1-672) (enzyme)
binds: [1]

Prkca (from UniProt P20444 1-672) (enzyme)
not listed: [1]
binds: all other assays above
